Laboratory results reported in patent publication US5741516A, “Sphingosomes for enhanced drug delivery” (priority 1995, dated 1998).
Where two headings read alike, the source gives them in different places.

What was measured:
[1] = i.v.
[2] = i.v.; remark: listed apart in the source
[3] = i.v.; remark: listed apart in the source
[4] = i.v.; remark: listed apart in the source
[5] = 15 mg/kg

O=C(O)c1cn(C2CC2)c2cc(N3CCNCC3)c(F)cc2c1=O [Free cipro, ciprofloxacin]
Ciprofloxacin accumulation in the kidney ([1]; 0.0833 hrs, 15 mg/kg): 23.5 ± 2.55 μg cipro/g tissue | Ciprofloxacin accumulation in the kidney ([1]; 0.25 hrs): 13.5 ± 1.47 μg cipro/g tissue | Ciprofloxacin accumulation in the kidney ([1]; 0.5 hrs, 15 mg/kg): 8.85 ± 1.37 μg cipro/g tissue | Ciprofloxacin accumulation in the kidney ([1]; 1 hrs, 15 mg/kg): 3.53 ± 0.25 μg cipro/g tissue | Ciprofloxacin accumulation in the spleen ([2]; 0.0833 hrs, 15 mg/kg): 16.10 ± 0.191 μg cipro/g tissue | Ciprofloxacin accumulation in the spleen ([2]; 0.25 hrs): 9.43 ± 0.76 μg cipro/g tissue | Ciprofloxacin accumulation in the spleen ([2]; 0.5 hrs, 15 mg/kg): 5.48 ± 0.294 μg cipro/g tissue | Ciprofloxacin accumulation in the spleen ([2]; 1 hrs, 15 mg/kg): 3.49 ± 0.271 μg cipro/g tissue | Ciprofloxacin level in plasma ([3]; 0.0833 hrs): 0.5996 ± 0.0135 μg cipro/100 μL plasma | Ciprofloxacin level in plasma ([3]; 0.25 hrs): 0.4096 ± 0.0308 μg cipro/100 μL plasma | Ciprofloxacin level in plasma ([3]; 0.5 hrs): 0.2720 ± 0.0323 μg cipro/100 μL plasma | Ciprofloxacin level in plasma ([3]; 1 hrs): 0.1324 ± 0.0008 μg cipro/100 μL plasma | Ciprofloxacin accumulation in the lung ([4]; 5 min, 15 mg/kg): 10.3 ± 0.09 μg cipro/g tissue | Ciprofloxacin accumulation in the lung ([4]; 0.25 h): 6.29 ± 0.22 μg cipro/g tissue | Ciprofloxacin accumulation in the lung ([4]; 0.5 h, 15 mg/kg): 3.12 ± 0.35 μg cipro/g tissue | Ciprofloxacin accumulation in the lung ([4]; 1 h, 15 mg/kg): 2.07 ± 0.29 μg cipro/g tissue | Plasma ciprofloxacin ([5]; i.p., 0.25 hrs): 0.43 ± 0.01 μg/100 μl plasma | Plasma ciprofloxacin ([5]; i.p., 0.50 hrs): 0.18 ± 0.09 μg/100 μl plasma | Plasma ciprofloxacin ([5]; i.p., 1.00 hrs): 0.07 ± 0.05 μg/100 μl plasma | Plasma ciprofloxacin ([5]; i.p., 4.00 hrs): 0.06 ± 0.007 μg/100 μl plasma | plasma ciprofloxacin levels, i.v. vs i.p. (in words) ([5]; i.v. or i.p.): no difference was observed | Plasma ciprofloxacin ([5]; i.v., 0.25 hrs): 0.35 ± 0.005 μg/100 μl plasma | Plasma ciprofloxacin ([5]; i.v., 0.50 hrs): 0.20 ± 0.03 μg/100 μl plasma | Plasma ciprofloxacin ([5]; i.v., 1.00 hrs): 0.11 ± 0.02 μg/100 μl plasma | Plasma ciprofloxacin ([5]; i.v., 4.00 hrs): 0.05 ± 0.001 μg/100 μl plasma | Plasma ciprofloxacin ([5]; i.v., 6.00 hrs): 0.03 ± 0.001 μg/100 μl plasma
